Test [1] addresses T1, FLAG-tagged NOD1 expressed in SUM159 cells (human) (UniProt Q9Y239).
T1 sequence: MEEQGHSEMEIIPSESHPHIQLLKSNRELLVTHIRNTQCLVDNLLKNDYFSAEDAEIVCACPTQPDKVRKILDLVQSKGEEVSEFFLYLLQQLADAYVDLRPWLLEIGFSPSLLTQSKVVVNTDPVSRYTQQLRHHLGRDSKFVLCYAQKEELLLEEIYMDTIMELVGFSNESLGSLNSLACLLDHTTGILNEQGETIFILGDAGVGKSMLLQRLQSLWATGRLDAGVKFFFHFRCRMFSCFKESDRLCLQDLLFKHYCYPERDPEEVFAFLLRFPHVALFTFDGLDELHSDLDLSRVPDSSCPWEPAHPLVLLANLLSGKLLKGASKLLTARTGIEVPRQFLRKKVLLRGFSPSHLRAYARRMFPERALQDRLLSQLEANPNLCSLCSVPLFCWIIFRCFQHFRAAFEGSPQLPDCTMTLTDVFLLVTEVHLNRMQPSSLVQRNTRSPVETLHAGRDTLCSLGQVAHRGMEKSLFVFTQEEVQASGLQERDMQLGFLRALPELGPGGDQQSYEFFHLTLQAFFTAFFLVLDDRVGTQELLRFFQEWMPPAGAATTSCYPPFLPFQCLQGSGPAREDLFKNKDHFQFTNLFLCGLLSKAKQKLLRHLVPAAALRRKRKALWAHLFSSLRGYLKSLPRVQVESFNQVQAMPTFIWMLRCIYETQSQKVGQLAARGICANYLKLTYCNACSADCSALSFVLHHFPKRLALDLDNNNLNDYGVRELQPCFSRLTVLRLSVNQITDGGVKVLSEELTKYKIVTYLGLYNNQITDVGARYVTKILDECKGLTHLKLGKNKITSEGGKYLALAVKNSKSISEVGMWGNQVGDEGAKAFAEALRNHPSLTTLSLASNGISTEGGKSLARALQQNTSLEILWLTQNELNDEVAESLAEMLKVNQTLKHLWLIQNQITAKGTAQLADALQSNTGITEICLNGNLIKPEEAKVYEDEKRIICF
The experiment in a line: co-IP; SUM159 cells, reciprocal; lysis in EBC buffer (50 mmol/L Tris, 120 mmol/L NaCl, 0.5% NP40, pH 7.5), FLAG beads or anti-HIS antibody-coupled protein A/G beads overnight at 4°C, washed with NETN buffer; also after treatment of the cells with ETBF or 10 nmol/L BFT-1, which increased the interaction.

Test [2] has as its target T2, FLAG-tagged NOD1, purified protein (human) (UniProt Q9Y239).
T2 sequence: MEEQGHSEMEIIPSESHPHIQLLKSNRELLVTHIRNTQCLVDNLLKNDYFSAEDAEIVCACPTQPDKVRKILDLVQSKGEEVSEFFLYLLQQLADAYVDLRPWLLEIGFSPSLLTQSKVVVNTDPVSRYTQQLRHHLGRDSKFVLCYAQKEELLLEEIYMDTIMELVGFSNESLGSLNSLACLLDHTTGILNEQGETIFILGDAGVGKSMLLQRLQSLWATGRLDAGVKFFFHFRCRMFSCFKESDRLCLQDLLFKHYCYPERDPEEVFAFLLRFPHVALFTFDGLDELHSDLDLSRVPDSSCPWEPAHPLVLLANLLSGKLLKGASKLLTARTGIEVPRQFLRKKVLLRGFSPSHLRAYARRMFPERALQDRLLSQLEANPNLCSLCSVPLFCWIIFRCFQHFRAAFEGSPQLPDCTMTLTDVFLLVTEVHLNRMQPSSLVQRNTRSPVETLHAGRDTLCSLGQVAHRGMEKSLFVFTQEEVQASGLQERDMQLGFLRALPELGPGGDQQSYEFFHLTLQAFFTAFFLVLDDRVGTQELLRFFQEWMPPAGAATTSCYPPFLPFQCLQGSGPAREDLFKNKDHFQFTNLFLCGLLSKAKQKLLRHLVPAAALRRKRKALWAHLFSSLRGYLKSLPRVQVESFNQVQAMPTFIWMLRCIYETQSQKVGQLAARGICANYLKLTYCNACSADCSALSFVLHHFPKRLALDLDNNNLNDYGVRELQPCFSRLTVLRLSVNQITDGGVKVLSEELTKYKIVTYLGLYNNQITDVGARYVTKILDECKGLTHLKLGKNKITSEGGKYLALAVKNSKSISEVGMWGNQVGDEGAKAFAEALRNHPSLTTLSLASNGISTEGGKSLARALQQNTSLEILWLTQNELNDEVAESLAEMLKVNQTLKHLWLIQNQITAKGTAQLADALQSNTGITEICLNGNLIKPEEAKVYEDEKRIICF
As to the kind of experiment: pull-down; in vitro GST pull-down with purified recombinant proteins; which partner was held on the beads is not told; both purified.

Data on two molecules can be found in paper PMC11131025.

These are yes or no findings as the source states them, for the method shown. For some assays here: Binding seen in cells or lysates may run through a third protein. Some binding calls cover weakened binding; strength is not graded here. Where a sequence is shown, tags or fusion partners need not be part of it.

B1: GAK expressed in SUM159 cells (enzyme, UniProt O14976 1-1311)
chain: MSLLQSALDFLAGPGSLGGASGRDQSDFVGQTVELGELRLRVRRVLAEGGFAFVYEAQDVGSGREYALKRLLSNEEEKNRAIIQEVCFMKKLSGHPNIVQFCSAASIGKEESDTGQAEFLLLTELCKGQLVEFLKKMESRGPLSCDTVLKIFYQTCRAVQHMHRQKPPIIHRDLKVENLLLSNQGTIKLCDFGSATTISHYPDYSWSAQRRALVEEEITRNTTPMYRTPEIIDLYSNFPIGEKQDIWALGCILYLLCFRQHPFEDGAKLRIVNGKYSIPPHDTQYTVFHSLIRAMLQVNPEERLSIAEVVHQLQEIAAARNVNPKSPITELLEQNGGYGSATLSRGPPPPVGPAGSGYSGGLALAEYDQPYGGFLDILRGGTERLFTNLKDTSSKVIQSVANYAKGDLDISYITSRIAVMSFPAEGVESALKNNIEDVRLFLDSKHPGHYAVYNLSPRTYRPSRFHNRVSECGWAARRAPHLHTLYNICRNMHAWLRQDHKNVCVVHCMDGRAASAVAVCSFLCFCRLFSTAEAAVYMFSMKRCPPGIWPSHKRYIEYMCDMVAEEPITPHSKPILVRAVVMTPVPLFSKQRSGCRPFCEVYVGDERVASTSQEYDKMRDFKIEDGKAVIPLGVTVQGDVLIVIYHARSTLGGRLQAKMASMKMFQIQFHTGFVPRNATTVKFAKYDLDACDIQEKYPDLFQVNLEVEVEPRDRPSREAPPWENSSMRGLNPKILFSSREEQQDILSKFGKPELPRQPGSTAQYDAGAGSPEAEPTDSDSPPSSSADASRFLHTLDWQEEKEAETGAENASSKESESALMEDRDESEVSDEGGSPISSEGQEPRADPEPPGLAAGLVQQDLVFEVETPAVLPEPVPQEDGVDLLGLHSEVGAGPAVPPQACKAPSSNTDLLSCLLGPPEAASQGPPEDLLSEDPLLLASPAPPLSVQSTPRGGPPAAADPFGPLLPSSGNNSQPCSNPDLFGEFLNSDSVTVPPSFPSAHSAPPPSCSADFLHLGDLPGEPSKMTASSSNPDLLGGWAAWTETAASAVAPTPATEGPLFSPGGQPAPCGSQASWTKSQNPDPFADLGDLSSGLQGSPAGFPPGGFIPKTATTPKGSSSWQTSRPPAQGASWPPQAKPPPKACTQPRPNYASNFSVIGAREERGVRAPSFAQKPKVSENDFEDLLSNQGFSSRSDKKGPKTIAEMRKQDLAKDTDPLKLKLLDWIEGKERNIRALLSTLHTVLWDGESRWTPVGMADLVAPEQVKKHYRRAVLAVHPDKAAGQPYEQHAKMIFMELNDAWSEFENQGSRPLF
With B1, the binding entry in test [1] is listed as “binds”.

B2: GAK, purified recombinant protein for the GST pull-down (enzyme, UniProt O14976-1 1-1311)
chain: MSLLQSALDFLAGPGSLGGASGRDQSDFVGQTVELGELRLRVRRVLAEGGFAFVYEAQDVGSGREYALKRLLSNEEEKNRAIIQEVCFMKKLSGHPNIVQFCSAASIGKEESDTGQAEFLLLTELCKGQLVEFLKKMESRGPLSCDTVLKIFYQTCRAVQHMHRQKPPIIHRDLKVENLLLSNQGTIKLCDFGSATTISHYPDYSWSAQRRALVEEEITRNTTPMYRTPEIIDLYSNFPIGEKQDIWALGCILYLLCFRQHPFEDGAKLRIVNGKYSIPPHDTQYTVFHSLIRAMLQVNPEERLSIAEVVHQLQEIAAARNVNPKSPITELLEQNGGYGSATLSRGPPPPVGPAGSGYSGGLALAEYDQPYGGFLDILRGGTERLFTNLKDTSSKVIQSVANYAKGDLDISYITSRIAVMSFPAEGVESALKNNIEDVRLFLDSKHPGHYAVYNLSPRTYRPSRFHNRVSECGWAARRAPHLHTLYNICRNMHAWLRQDHKNVCVVHCMDGRAASAVAVCSFLCFCRLFSTAEAAVYMFSMKRCPPGIWPSHKRYIEYMCDMVAEEPITPHSKPILVRAVVMTPVPLFSKQRSGCRPFCEVYVGDERVASTSQEYDKMRDFKIEDGKAVIPLGVTVQGDVLIVIYHARSTLGGRLQAKMASMKMFQIQFHTGFVPRNATTVKFAKYDLDACDIQEKYPDLFQVNLEVEVEPRDRPSREAPPWENSSMRGLNPKILFSSREEQQDILSKFGKPELPRQPGSTAQYDAGAGSPEAEPTDSDSPPSSSADASRFLHTLDWQEEKEAETGAENASSKESESALMEDRDESEVSDEGGSPISSEGQEPRADPEPPGLAAGLVQQDLVFEVETPAVLPEPVPQEDGVDLLGLHSEVGAGPAVPPQACKAPSSNTDLLSCLLGPPEAASQGPPEDLLSEDPLLLASPAPPLSVQSTPRGGPPAAADPFGPLLPSSGNNSQPCSNPDLFGEFLNSDSVTVPPSFPSAHSAPPPSCSADFLHLGDLPGEPSKMTASSSNPDLLGGWAAWTETAASAVAPTPATEGPLFSPGGQPAPCGSQASWTKSQNPDPFADLGDLSSGLQGSPAGFPPGGFIPKTATTPKGSSSWQTSRPPAQGASWPPQAKPPPKACTQPRPNYASNFSVIGAREERGVRAPSFAQKPKVSENDFEDLLSNQGFSSRSDKKGPKTIAEMRKQDLAKDTDPLKLKLLDWIEGKERNIRALLSTLHTVLWDGESRWTPVGMADLVAPEQVKKHYRRAVLAVHPDKAAGQPYEQHAKMIFMELNDAWSEFENQGSRPLF
Take B2: the binding result in test [2] was “binds”.
